# These are yes or no findings as the source states them, for the method shown. In cells and extracts the contact can be indirect. Here binding means that the protein was enriched with, or labelled near, the bait; the list need not be complete.
# Sequences of proteins named here, by UniProt entry; tags and fusion partners are left off. Residues count along the entry.
# UniProt P02545, residues 1-646: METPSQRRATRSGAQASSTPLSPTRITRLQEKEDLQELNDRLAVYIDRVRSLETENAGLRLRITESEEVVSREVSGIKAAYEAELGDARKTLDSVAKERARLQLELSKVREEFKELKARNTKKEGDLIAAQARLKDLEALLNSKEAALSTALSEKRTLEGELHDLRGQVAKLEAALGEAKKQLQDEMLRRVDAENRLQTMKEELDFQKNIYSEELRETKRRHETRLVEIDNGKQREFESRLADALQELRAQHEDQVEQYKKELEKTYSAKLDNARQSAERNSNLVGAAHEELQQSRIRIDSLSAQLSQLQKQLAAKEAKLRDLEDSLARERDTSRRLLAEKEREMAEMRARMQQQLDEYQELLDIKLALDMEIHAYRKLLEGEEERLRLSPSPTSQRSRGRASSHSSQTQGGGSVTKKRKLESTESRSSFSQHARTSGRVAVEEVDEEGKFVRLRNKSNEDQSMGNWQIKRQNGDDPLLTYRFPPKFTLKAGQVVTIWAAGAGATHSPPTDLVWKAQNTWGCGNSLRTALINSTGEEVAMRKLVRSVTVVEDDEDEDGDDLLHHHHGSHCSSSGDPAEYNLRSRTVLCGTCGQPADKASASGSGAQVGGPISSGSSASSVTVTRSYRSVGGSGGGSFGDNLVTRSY
# Molecular target: T1, Succinate-coenzyme A (CoA) ligase GDP-forming subunit beta (SUCLG2) (human (endogenous in LN229)) (UniProt Q96I99)
# T1 sequence: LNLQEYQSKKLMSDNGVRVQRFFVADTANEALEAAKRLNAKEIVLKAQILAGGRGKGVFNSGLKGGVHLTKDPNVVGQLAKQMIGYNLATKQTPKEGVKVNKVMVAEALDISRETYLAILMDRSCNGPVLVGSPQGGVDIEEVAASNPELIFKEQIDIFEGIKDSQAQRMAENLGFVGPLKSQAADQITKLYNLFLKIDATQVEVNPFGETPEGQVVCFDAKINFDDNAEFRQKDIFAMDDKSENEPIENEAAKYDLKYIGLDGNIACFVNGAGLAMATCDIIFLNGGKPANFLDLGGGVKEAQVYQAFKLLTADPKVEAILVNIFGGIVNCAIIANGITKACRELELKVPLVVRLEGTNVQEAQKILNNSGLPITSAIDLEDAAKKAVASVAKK
# Experiment: affinity purification with mass spectrometry; immunoprecipitation of SUCLG2 from LN229 cells, partners identified by mass spectrometry; control IP-MS alongside
substance,measurement,value
lamin A (LMNA) (from UniProt P02545 1-646),binding,binds
